Test results from paper PMC9041834.
No constants are given. Whether binding was seen depends on the method and setting. In cells and extracts the contact can be indirect. A yes stands for co-enrichment or nearness to the bait. Other partners may have been found. For part of these data: No binding means not detected with the bait.

Amino acid sequences for entries named in this document (tags omitted).
UniProt Q17551: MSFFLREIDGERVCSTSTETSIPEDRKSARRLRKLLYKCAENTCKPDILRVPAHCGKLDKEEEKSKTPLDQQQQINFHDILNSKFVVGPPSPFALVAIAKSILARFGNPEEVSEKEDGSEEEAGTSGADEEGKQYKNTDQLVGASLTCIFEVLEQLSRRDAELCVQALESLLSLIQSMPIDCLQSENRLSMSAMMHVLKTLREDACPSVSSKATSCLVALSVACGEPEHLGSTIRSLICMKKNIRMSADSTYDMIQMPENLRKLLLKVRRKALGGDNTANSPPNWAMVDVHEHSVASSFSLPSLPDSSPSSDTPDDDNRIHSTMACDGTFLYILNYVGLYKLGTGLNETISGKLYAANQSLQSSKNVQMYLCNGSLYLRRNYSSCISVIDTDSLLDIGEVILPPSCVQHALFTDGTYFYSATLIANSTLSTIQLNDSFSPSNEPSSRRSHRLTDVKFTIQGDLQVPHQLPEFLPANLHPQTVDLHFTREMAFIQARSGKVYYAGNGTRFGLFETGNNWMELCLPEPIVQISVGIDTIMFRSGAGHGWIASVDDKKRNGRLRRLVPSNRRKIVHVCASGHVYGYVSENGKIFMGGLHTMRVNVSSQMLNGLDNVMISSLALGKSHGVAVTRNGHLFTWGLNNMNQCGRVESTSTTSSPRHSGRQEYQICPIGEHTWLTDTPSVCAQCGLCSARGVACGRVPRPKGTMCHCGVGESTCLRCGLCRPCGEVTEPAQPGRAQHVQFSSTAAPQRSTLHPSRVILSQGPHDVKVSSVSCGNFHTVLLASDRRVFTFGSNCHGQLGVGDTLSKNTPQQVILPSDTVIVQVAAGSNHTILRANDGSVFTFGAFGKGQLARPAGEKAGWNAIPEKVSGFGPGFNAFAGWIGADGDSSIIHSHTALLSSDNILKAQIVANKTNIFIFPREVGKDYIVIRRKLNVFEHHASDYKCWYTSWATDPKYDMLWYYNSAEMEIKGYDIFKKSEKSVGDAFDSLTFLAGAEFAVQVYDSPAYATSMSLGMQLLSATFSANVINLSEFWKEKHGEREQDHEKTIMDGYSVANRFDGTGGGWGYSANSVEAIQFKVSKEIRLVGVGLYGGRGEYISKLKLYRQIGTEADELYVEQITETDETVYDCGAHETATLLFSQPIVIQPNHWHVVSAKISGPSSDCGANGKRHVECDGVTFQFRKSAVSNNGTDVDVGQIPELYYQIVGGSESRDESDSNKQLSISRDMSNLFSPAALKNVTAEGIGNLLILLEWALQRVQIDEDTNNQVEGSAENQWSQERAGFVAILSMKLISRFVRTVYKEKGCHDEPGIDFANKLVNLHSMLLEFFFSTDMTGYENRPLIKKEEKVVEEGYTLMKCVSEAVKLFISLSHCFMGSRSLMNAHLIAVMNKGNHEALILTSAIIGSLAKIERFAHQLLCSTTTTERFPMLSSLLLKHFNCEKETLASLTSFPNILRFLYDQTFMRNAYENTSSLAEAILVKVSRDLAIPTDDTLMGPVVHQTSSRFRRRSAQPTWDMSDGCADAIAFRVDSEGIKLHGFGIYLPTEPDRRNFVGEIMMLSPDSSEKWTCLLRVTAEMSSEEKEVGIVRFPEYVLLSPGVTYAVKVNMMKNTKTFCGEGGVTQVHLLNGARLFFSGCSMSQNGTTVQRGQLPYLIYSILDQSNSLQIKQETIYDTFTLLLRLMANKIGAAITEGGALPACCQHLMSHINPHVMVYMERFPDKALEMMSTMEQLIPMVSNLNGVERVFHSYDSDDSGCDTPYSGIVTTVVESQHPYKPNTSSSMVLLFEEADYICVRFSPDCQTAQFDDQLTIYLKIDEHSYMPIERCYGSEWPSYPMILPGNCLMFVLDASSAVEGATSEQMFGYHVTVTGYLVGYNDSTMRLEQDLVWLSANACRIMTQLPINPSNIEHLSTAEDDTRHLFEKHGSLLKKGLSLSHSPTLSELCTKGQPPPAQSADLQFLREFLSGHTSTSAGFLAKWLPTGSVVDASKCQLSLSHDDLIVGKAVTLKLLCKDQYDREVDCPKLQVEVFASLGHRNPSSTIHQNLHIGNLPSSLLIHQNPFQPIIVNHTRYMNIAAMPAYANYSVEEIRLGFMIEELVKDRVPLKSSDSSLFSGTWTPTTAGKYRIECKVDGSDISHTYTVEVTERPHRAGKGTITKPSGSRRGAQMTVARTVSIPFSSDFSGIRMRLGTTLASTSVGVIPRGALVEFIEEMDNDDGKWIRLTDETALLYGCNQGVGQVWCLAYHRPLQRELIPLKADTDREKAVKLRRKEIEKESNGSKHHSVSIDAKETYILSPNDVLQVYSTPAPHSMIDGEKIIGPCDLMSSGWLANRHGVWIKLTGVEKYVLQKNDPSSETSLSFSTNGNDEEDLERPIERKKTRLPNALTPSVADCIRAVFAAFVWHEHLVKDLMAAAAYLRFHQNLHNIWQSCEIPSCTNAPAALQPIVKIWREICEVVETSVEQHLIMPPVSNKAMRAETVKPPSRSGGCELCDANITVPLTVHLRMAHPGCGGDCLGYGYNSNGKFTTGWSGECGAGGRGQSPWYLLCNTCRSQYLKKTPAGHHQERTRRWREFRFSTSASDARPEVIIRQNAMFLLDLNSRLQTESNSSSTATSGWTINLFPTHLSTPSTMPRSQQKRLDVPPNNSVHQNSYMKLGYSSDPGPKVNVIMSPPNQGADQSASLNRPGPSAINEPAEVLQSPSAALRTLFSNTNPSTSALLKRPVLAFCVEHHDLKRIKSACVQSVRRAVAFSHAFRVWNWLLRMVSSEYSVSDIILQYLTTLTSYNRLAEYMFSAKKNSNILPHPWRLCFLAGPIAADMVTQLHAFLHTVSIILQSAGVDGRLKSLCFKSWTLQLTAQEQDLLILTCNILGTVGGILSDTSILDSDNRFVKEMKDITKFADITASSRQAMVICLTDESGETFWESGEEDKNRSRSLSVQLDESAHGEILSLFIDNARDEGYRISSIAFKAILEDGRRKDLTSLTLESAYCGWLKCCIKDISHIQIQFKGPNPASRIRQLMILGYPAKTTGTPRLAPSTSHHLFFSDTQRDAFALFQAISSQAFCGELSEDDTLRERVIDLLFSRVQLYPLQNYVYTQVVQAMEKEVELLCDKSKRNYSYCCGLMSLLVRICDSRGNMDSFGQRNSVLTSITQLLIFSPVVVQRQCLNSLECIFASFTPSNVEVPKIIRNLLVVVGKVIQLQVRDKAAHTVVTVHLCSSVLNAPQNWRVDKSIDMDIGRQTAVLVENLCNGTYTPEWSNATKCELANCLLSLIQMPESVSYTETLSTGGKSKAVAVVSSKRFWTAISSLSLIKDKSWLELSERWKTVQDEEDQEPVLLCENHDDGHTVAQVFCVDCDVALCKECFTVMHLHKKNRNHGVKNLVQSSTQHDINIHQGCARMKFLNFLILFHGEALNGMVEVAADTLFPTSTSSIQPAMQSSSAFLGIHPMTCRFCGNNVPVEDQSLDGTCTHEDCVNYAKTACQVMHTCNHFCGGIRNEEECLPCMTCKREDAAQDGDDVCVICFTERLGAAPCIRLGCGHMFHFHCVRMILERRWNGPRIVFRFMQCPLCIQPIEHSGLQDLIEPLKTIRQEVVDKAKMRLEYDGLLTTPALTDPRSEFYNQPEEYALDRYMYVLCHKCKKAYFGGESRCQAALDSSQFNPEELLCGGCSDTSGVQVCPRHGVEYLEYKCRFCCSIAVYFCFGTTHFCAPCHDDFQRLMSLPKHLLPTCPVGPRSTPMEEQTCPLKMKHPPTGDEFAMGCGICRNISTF
UniProt G5ECH7: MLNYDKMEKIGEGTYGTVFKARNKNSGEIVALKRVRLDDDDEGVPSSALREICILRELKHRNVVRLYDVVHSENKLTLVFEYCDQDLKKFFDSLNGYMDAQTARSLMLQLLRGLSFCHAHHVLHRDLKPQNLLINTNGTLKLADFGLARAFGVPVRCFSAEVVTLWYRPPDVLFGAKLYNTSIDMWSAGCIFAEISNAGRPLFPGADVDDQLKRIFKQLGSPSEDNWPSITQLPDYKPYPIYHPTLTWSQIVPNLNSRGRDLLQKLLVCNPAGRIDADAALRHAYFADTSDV
UniProt G5ECU1: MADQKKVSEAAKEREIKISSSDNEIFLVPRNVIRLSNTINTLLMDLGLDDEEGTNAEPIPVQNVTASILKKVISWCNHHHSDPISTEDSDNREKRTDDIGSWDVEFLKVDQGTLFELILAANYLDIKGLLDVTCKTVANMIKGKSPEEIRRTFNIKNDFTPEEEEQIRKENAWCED

Experiments:
[1] = biological target: GS::RPM-1 (wild-type RPM-1 fused to a protein G::Streptavidin binding peptide (GS) affinity tag) (C. elegans) (UniProt Q17551); test: affinity purification with mass spectrometry; GS-tagged baits (GS::RPM-1, GS::RPM-1 LD, GS::GFP) from transgenic mixed-stage C. elegans; cryomilled, lysed under varying detergent conditions; whole animal lysate (80 mg total protein) on IgG coupled Dynabeads, 4 h, 4°C; LC-MS/MS; 7 independent experiments
[2] = biological target: GS::RPM-1 LD (RPM-1 ubiquitin ligase dead substrate trap fused to the GS affinity tag) (C. elegans) (UniProt Q17551); test: as above

Substance | binding [1] | binding [2]
CDK-5 (from UniProt G5ECH7 1-292) (enzyme) | no binding | 
SKR-1(SKP1) (from UniProt G5ECU1 1-176) | binds | binds
